According to US20090170219:
For some assays here: No signal at the amounts used counts as a negative. For some assays here: Weaker means in comparison with the reference protein, sequence or condition of that experiment. For some assays here: For at least one entry, the source does not settle the construct or the ends of the probe. For some assays here: Results from cells or extracts need not show a direct contact.

Chains of the proteins cited; added tags and fusions are not shown. A line that says so, or that is headed by a name, gives the form on record, which may keep a tag or linker.
IgE (human), one chain, as listed by the source: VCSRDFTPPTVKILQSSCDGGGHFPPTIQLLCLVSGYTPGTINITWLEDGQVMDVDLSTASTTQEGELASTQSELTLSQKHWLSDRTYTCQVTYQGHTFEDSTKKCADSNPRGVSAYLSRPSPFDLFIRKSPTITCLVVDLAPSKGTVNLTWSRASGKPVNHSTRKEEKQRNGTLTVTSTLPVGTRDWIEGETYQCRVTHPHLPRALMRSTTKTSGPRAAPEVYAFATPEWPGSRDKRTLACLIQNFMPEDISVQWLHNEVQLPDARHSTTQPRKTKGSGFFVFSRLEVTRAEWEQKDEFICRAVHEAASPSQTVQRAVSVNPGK
IgM (human), one chain, as listed by the source: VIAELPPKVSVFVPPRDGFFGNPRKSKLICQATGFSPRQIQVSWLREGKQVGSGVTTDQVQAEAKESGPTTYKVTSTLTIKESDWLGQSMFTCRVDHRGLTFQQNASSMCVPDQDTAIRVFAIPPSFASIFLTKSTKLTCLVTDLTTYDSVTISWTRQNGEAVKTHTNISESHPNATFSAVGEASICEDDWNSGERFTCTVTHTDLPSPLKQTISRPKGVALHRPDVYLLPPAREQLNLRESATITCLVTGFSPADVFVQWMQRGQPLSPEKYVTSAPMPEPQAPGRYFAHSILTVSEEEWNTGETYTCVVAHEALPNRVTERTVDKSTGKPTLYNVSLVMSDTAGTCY
IgD (human), one chain, as listed by the source: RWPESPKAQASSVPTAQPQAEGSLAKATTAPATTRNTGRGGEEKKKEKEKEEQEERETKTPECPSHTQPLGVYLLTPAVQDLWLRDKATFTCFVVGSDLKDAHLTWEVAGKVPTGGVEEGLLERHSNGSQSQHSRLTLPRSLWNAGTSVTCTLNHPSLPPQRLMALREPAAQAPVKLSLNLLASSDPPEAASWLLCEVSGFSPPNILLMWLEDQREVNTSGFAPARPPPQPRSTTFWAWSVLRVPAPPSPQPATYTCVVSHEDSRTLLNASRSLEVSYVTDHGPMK

Key:
IgG1 (human) = assay: SPR; conditions: purified native protein, protein details: Calbiochem
IgA (human) = assay: SPR; conditions: 2'-F at all pyrimidines; purified native protein; protein details: Bethyl Laboratories; label: 3' A16 tail for immobilisation; variant of SEQ ID NO:16
IgD (human) = assay: SPR; conditions: 2'-F at all pyrimidines, purified native protein, protein details: Biogenesis, label: 3' A16 tail for immobilisation
IgE (human) = assay: SPR; conditions: 2'-F at all pyrimidines, purified native protein, protein details: Calbiochem, label: 3' A16 tail for immobilisation
IgG (cat) = assay: SPR; conditions: 2'-F at all pyrimidines, purified native protein, protein details: Bethyl Laboratories, label: 3' A16 tail for immobilisation
IgG (dog) = assay: SPR; conditions: 2'-F at all pyrimidines, purified native protein, protein details: Rockland, label: 3' A16 tail for immobilisation
IgM (human) = assay: SPR; conditions: 2'-F at all pyrimidines; very weak but measurable; purified native protein; protein details: Chemicon International; label: 3' A16 tail for immobilisation; variant of SEQ ID NO:16
IgG in serum (human) = assay: pull-down; conditions: 2'-F at all pyrimidines; 150 mM NaCl, 2.5 mM MgCl2, 20 mM Tris pH 7.6 wash; eluted by 200 mM KCl + 10 mM EDTA; protein in an extract; protein details: human serum, Chemicon International; label: 3' A16 tail for SPR, 5' biotin for serum pull-down; variant of SEQ ID NO:13
IgG in serum (mouse) = assay: pull-down; conditions: 2'-F at all pyrimidines; mouse serum; rProtein A did pull down IgG; protein in an extract; protein details: mouse serum, Chemicon International; label: 3' A16 tail for SPR, 5' biotin for serum pull-down; variant of SEQ ID NO:13
[1] = test system: IgG Fc fragment (IgG-Fc) (human); assay: SPR; conditions: 2'-F at all pyrimidines; 0.6 uM IgG-Fc; purified native protein; protein details: Athens Research & Technology; label: 3' A16 tail for immobilisation

## GGACAGGUGCUCUGCGAGCCACGCGGAACUGUCC [SEQ ID NO:13 natural RNA]
IgG1 (human); amount of IgG1 bound decreased vs 2'-F RNA, variant of SEQ ID NO:13
  binding result: binds more weakly

## GGACGAGUUACAGGUGCUCCAUCAACAAAAUGUUACAUGGAACUGUAACGGCCG [SEQ ID NO:11 natural RNA]
IgG1 (human); amount of IgG1 bound decreased vs 2'-F RNA, variant of SEQ ID NO:11
  binding result: binds more weakly

## GGAGGUGCUCCGAAAGGAACTCCAAAAAAAAAAAAAAAA [SEQ ID NO:17-3 (23F3)]
IgG1 (human); deoxy G1 G2 A3 C10-G17 T21 C22 C23 and A16 tail, 2'-F U6 C8 U9 C20, rest 2'-OH, parent SEQ 17 ++, variant of SEQ ID NO:17
  binding result: binds more weakly

## GGAGGUGCUCCGAAAGGAACUCC [SEQ ID NO:17-7-1]
IgG1 (human); as 17-7, bulge G(OH)A(OH)U(F)G(OH)C(H)U(OH), variant of SEQ ID NO:17-7 (23F23)
  binding result: no binding

## GGAGGUGCUCCGAAAGGAACUCC [SEQ ID NO:17-7-2]
IgG1 (human); as 17-7, bulge G(OH)C(F)U(F)G(OH)C(H)U(OH), variant of SEQ ID NO:17-7 (23F23)
  binding result: no binding

## GGAGGUGCUCCGAAAGGAACUCC [SEQ ID NO:17-7-3]
IgG1 (human); as 17-7, bulge G(OH)G(OH)C(F)G(OH)C(H)U(OH), variant of SEQ ID NO:17-7 (23F23)
  binding result: no binding

## GGAGGUGCUCCGAAAGGAACUCC [SEQ ID NO:17-7-4]
IgG1 (human); as 17-7, bulge G(OH)G(OH)U(F)A(OH)C(H)U(OH), variant of SEQ ID NO:17-7 (23F23)
  binding result: no binding

## GGAGGUGCUCCGAAAGGAACUCC [SEQ ID NO:17-7-5]
IgG1 (human); as 17-7, bulge G(OH)G(OH)U(F)U(F)C(H)U(OH), variant of SEQ ID NO:17-7 (23F23)
  binding result: no binding

## GGAGGUGCUCCGAAAGGAACUCC [SEQ ID NO:17-7-102]
IgG1 (human); as 17-7 with 2'-OH U6, variant of SEQ ID NO:17-7 (23F23)
  binding result: no binding

## GGAGGUGCUCCGAAAGGAACUCC [SEQ ID NO:17-7-103]
IgG1 (human); as 17-7 with 2'-H U6, variant of SEQ ID NO:17-7 (23F23)
  binding result: no binding

## GGAGGUGCUCCGAAAGGAACUCC [SEQ ID NO:17]
IgA (human)
  binding result: no binding
IgD (human); variant of SEQ ID NO:16
  binding result: no binding
IgE (human); variant of SEQ ID NO:16
  binding result: no binding
IgG (cat); variant of SEQ ID NO:16
  binding result: no binding
IgG (dog); variant of SEQ ID NO:16
  binding result: no binding
IgM (human)
  binding result: binds more weakly

## GGAGGUGCUCUGCGAGCCACGCGGAACUCC [SEQ ID NO:15]
IgG in serum (human)
  binding result: binds
IgG in serum (mouse)
  binding result: no binding

## GGGACACAAUGGACGAGUUACAGGUGCUCCAUCAACAAAAUGUUACAUGGAACUGUAACGGCCGACAUGAGAG [SEQ ID NO:1]
IgD (human)
  binding result: no binding
IgE (human)
  binding result: no binding
IgG (cat)
  binding result: no binding
IgG (dog)
  binding result: no binding

## GGGCCACAGCGAGGUGCUCCACCAUUCACGUGGAACUCGUGGGCAGCCCGUCCCCGCGUGUGGUCGG [SEQ ID NO:9]
[1]
  binding result: binds
